Earlier results as cited in patent US8637685B2, “Schweinfurthin analogues” (University of Iowa Research Foundation, priority 2008, dated 2014).
Some entries share one result that the patent states for a list of compounds. At least one structure is not confirmed: it was looked up by name or label, or the drawing left a doubt.

Tested on: NCI 60 human tumor cell lines
Conditions: NCI's 60-cell line anticancer assay, mean; cited from earlier work

| Molecule | GI50 [nM] |
| --- | --- |
| COc1cc(/C=C/c2cc(O)c(C/C=C(\C)CCC=C(C)C)c(O)c2)cc2c1O[C@]1(C)C[C@@H](O)[C@@H](O)C(C)(C)[C@H]1C2 [Schweinfurthin B] | < 1000 |
| Schweinfurthin D | < 1000 |
